Results reported in publication doi:10.1101/2020.03.24.006932.
No constants are given. Whether binding was seen depends on the method and setting. Some entries that bind do so weakly or less than the wild type.

Protein sequences, listed by entry. Tags and fused reporters are not part of them.
UniProt P12954: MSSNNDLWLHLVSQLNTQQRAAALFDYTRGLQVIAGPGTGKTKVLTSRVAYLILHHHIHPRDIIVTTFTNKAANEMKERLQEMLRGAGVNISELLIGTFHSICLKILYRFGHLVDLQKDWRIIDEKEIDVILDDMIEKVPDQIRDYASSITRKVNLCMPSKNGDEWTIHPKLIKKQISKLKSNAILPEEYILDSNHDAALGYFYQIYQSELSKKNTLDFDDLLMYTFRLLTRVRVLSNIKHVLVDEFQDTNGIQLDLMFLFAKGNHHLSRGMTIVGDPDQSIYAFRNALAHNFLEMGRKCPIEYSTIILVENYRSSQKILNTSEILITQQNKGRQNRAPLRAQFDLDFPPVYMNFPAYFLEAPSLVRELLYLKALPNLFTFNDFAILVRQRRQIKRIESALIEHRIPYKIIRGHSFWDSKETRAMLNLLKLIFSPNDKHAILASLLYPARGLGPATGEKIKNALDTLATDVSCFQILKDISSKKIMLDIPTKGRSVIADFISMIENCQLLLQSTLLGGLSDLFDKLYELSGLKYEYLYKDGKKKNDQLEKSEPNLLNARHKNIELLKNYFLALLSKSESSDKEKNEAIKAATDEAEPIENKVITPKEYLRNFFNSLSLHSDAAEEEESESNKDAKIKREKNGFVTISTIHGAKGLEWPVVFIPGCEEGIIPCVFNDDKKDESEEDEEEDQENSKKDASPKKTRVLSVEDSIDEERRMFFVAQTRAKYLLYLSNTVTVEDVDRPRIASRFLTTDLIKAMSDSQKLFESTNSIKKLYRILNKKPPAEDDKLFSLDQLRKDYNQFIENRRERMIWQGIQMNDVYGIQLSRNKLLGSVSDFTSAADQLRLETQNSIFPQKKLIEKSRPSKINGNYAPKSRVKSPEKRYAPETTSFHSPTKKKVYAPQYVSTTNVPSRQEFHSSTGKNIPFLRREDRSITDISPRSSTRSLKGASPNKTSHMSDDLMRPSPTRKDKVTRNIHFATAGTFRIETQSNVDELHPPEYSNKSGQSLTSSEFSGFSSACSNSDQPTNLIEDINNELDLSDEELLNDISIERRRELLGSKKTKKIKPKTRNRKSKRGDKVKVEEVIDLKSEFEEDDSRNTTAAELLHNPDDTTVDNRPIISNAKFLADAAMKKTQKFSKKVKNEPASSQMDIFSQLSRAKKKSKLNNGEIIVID
UniProt P25454: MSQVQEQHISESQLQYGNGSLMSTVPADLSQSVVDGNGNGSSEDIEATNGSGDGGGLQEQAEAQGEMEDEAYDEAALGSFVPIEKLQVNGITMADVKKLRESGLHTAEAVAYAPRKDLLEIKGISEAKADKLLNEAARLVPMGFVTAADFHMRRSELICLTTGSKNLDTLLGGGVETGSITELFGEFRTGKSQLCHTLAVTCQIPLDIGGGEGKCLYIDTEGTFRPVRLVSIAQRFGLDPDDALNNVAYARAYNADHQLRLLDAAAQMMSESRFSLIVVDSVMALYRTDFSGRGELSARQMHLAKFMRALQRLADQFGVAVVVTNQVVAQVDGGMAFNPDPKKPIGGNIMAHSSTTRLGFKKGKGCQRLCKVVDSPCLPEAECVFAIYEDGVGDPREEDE

Biological target: Srs2 fused with the DNA binding domain of Gal4 (yeast) (UniProt P12954)
Experiment: two-hybrid

binding: binds
Substance: Rad51 fused with the transcription activating domain of Gal4 (from UniProt P25454 1-400)
